# From the supplement of paper PMC3682954
# Counter-ions that a name gives are not always drawn. ± gives the standard deviation of the averaged measurements. The list shows a part of the results. Most values come without repeats; read them as rough.
# Test system: RAW 264.7
# Assay: HMGB1-induced TNF-alpha production relative to HMGB1-stimulated control; higher = more TNF-alpha secretion (less inhibition)
# Details: stimulus: HMGB1 5 ug/ml, 18 h
# [1] = compound concentration: 1 ug/ml
SMILES,HMGB1-induced TNF-alpha production (compound concentration: 3 uM),HMGB1-induced TNF-alpha production [1]
NC[C@H](O)c1ccc(O)c(O)c1,51.1%,
CCN(CC)CCNC(=O)c1ccc(N)cc1 [Procainamide hydrochloride],84.7 ± 28%,
CCN(CC)CCNC(=O)c1ccc(N)cc1,79.3%,
CCN(CC)CCNC(=O)c1ccc(N)cc1 [Procainamide],105%,
Cc1cc2c(C(C)C)c(O)c(O)c3c2c(c1-c1c(C)cc2c(C(C)C)c(O)c(O)c4c2c1OC4N)OC3N (stereo not given),,78.3%
c1ccc2c(c1)CC(N1CCN(c3cccc4c3OCCO4)CC1)C2,101%,
CCCCCCOc1ccccc1C(N)=O,82.7%,
CC[C@H]1OC(=O)[C@H](C)[C@@H](O[C@H]2C[C@@](C)(OC)[C@@H](O)[C@H](C)O2)[C@H](C)[C@@H](O[C@@H]2O[C@H](C)C[C@H](N(C)C)[C@H]2O)[C@](C)(O)C[C@@H](C)CN(C)[C@H](C)[C@@H](O)[C@]1(C)O,81%,
CC[C@H]1OC(=O)[C@H](C)[C@@H](O[C@H]2C[C@@](C)(OC)[C@@H](O)[C@H](C)O2)[C@H](C)[C@@H](O[C@@H]2O[C@H](C)C[C@H](N(C)C)[C@H]2O)[C@](C)(O)C[C@@H](C)CN(C)[C@H](C)[C@@H](O)[C@]1(C)O [Azithromycin],95.6 ± 17%,
C[C@@H]1CCC[C@H](C)N1NC(=O)c1ccc(Cl)c(S(N)(=O)=O)c1 [Clopamide],83 ± 18%,
CCC(C)(C)N=C(NC#N)Nc1cccnc1,118%,
CN[C@H]1CC[C@@H](c2ccc(Cl)c(Cl)c2)c2ccccc21,95.6%,
CN[C@H]1CC[C@@H](c2ccc(Cl)c(Cl)c2)c2ccccc21 [Sertraline],99.7 ± 15%,
CN[C@H]1CC[C@@H](c2ccc(Cl)c(Cl)c2)c2ccccc21 [Sertraline hydrochloride],92.3%,
COc1cc2ccc(=O)oc2c(O)c1O [Fraxetin],,66.6%
Cc1cc2c(C(C)C)c(O)c(O)c(/C=N/Nc3cccc(Cl)n3)c2c(O)c1-c1c(C)cc2c(C(C)C)c(O)c(O)c(/C=N/Nc3cccc(Cl)n3)c2c1O,,67.8%
CC(CNC1CCCCC1)OC(=O)c1ccccc1 (stereo not given) [Hexylcaine hydrochloride],66%,
"CC(C)[C@H]1CC[C@H](C)C[C@@H]1O [(1S,2R,5S)-(+)-Menthol]",,68.2%
Nc1ccc(S(=O)(=O)Nc2nccs2)cc1 [Sulfathiazole],73.2%,
Nc1ccc(S(=O)(=O)Nc2nccs2)cc1,95.8%,
Cc1ccc(-c2cc(C(F)(F)F)nn2-c2ccc(S(N)(=O)=O)cc2)cc1 [Celecoxib],84.5 ± 9.1%,

# Pulled one by one from above (4):
SMILES,HMGB1-induced TNF-alpha production (compound concentration: 3 uM),HMGB1-induced TNF-alpha production [1]
CC(CNC1CCCCC1)OC(=O)c1ccccc1 (stereo not given) [Hexylcaine hydrochloride],66%,
COc1cc2ccc(=O)oc2c(O)c1O [Fraxetin],,66.6%
CCN(CC)CCNC(=O)c1ccc(N)cc1 [Procainamide],105%,
CCN(CC)CCNC(=O)c1ccc(N)cc1,79.3%,

# Additional entries.

SMILES,HMGB1-induced TNF-alpha production (compound concentration: 3 uM),HMGB1-induced TNF-alpha production [1]
Cc1ccc(-c2cc(C(F)(F)F)nn2-c2ccc(S(N)(=O)=O)cc2)cc1,77.3%,
O=C1c2ccccc2C(=O)c2c(O)c(O)cc(O)c21 [Purpurin],,67.8%
COc1cc2cc(Oc3ccc4ccc(=O)oc4c3)c(=O)oc2cc1OC(C)=O [Daphnoretine Acetate],,60.8%
CC(C)[N+]1(C)[C@@H]2CC[C@H]1C[C@@H](OC(=O)C(CO)c1ccccc1)C2 (stereo not given in full) [Ipratropium],98.5%,
CC(C)[N+]1(C)[C@@H]2CC[C@H]1C[C@@H](OC(=O)C(CO)c1ccccc1)C2 (stereo not given in full),98.6%,
CC(C)[N+]1(C)[C@@H]2CC[C@H]1C[C@@H](OC(=O)C(CO)c1ccccc1)C2 (stereo not given in full) [Ipratropium bromide],83%,
C[C@]12CC[C@@H]3c4ccc(O)cc4C[C@@H](CCCCCCCCC[S+]([O-])CCCC(F)(F)C(F)(F)F)[C@H]3[C@@H]1CC[C@@H]2O (stereo not given in full) [Fulvestrant],81.6 ± 5.6%,
O=C(O)[C@@H]1[C@H]2C[C@H]3c4[nH]c5ccccc5c4CCN3C[C@@H]2CC[C@@H]1O [Yohimbinic acid monohydrate],,54.4%
COc1cc(CNC(=O)CCCC/C=C/C(C)C)ccc1O,105%,
COc1cc(CNC(=O)CCCC/C=C/C(C)C)ccc1O [Capsaicin],102 ± 7.1%,63.7%
CO/N=C(\C(=O)N[C@@H]1C(=O)N2C(C(=O)O)=C(COC(C)=O)CS[C@H]12)c1csc(N)n1,86.7%,
CO/N=C(\C(=O)N[C@@H]1C(=O)N2C(C(=O)O)=C(COC(C)=O)CS[C@H]12)c1csc(N)n1 [Cefotaxime Acid],96.1%,
CO/N=C(\C(=O)N[C@@H]1C(=O)N2C(C(=O)O)=C(COC(C)=O)CS[C@H]12)c1csc(N)n1 [Cefotaxime sodium],76.9%,
CO/N=C(\C(=O)N[C@@H]1C(=O)N2C(C(=O)O)=C(COC(C)=O)CS[C@H]12)c1csc(N)n1 [Cefotaxime sodium salt],75.8%,
O=C(/C=C/c1ccc(O)c(O)c1)O[C@H](Cc1ccc(O)c(O)c1)C(=O)O [Rosmarinic acid],,62.4%
C1CCC(N=C(NC23CC4CC(CC(C4)C2)C3)N2CCOCC2)CC1,84.8%,
COC(=O)[C@H](Cc1ccccc1)NC(=O)[C@@H](N)CC(=O)O,86.6%,
C[N+](C)(C)CC(O)CC(=O)[O-] (stereo not given),83.1%,
NC(N)=N[C@@H](CCC(=O)O)C(=O)O [alpha-Guanidinoglutaric acid],80.1%,
"NC(Cc1cnc[nH]1)C(=O)O (racemic) [DL-Histidine hydrochloride, monohydrate]",,73.3%
CCCCOc1cc(C(=O)OCCN(CC)CC)ccc1N [Benoxinate hydrochloride],77.4%,

SMILES,HMGB1-induced TNF-alpha production (compound concentration: 3 uM),HMGB1-induced TNF-alpha production [1]
Clc1ccc2nsnc2c1NC1=NCCN1 [Tizanidine],96.1%,
Clc1ccc2nsnc2c1NC1=NCCN1 [Tizanidine HCl],113%,
Clc1ccc2nsnc2c1NC1=NCCN1 [Tizanidine hydrochloride],105%,
CC(=O)Nc1c(I)cc(I)c(C(=O)O)c1I,79.4%,
Cc1cc2cc3c(C)cc(=O)oc3c(C)c2o1,87.6%,
Cc1cc2cc3c(C)cc(=O)oc3c(C)c2o1 [Trioxsalen],92.9%,
CC(=O)Nc1nnc(S(N)(=O)=O)s1 [Acetazolamide],92.1 ± 2.7%,
CC(=O)Nc1nnc(S(N)(=O)=O)s1,85.9%,
CC(C)Oc1ccc2c(=O)c(-c3ccccc3)coc2c1 [Ipriflavone],,82.9%
CC(C)Oc1ccc2c(=O)c(-c3ccccc3)coc2c1,90.1 ± 25%,
"O=C(O)CCC(C(=O)O)N1C(=O)c2ccccc2C1=O [L-Glutamic acid, N-phthaloyl-]",93.7%,
CC[C@H](C)[C@H](N)C(=O)O [L-Isoleucine],,76.4%
NC[C@@H]1O[C@H](C23CC4CC(CC(C4)C2)C3)Cc2c1ccc(O)c2O,72.4%,
CCOc1nc2cccc(C(=O)O)c2n1Cc1ccc(-c2ccccc2-c2nnn[nH]2)cc1 [Candesartan],117 ± 5%,
C[C@@](Cc1ccc(O)c(O)c1)(NN)C(=O)O,92.7%,
C[C@@](Cc1ccc(O)c(O)c1)(NN)C(=O)O [Carbidopa],101 ± 14%,
CC1CCN(CC[C@H]2CCCN2S(=O)(=O)c2cccc(O)c2)CC1,111%,
Nc1ncnc2c1ncn2[C@@H]1O[C@H](CO)[C@@H](O)[C@@H]1O [Vidarabine],108 ± 9.4%,
Nc1ncnc2c1ncn2[C@@H]1O[C@H](CO)[C@@H](O)[C@@H]1O,79.6%,
CC(=O)OC[C@H]1O[C@@H]([S-])[C@H](OC(C)=O)[C@@H](OC(C)=O)[C@@H]1OC(C)=O.CCP(CC)CC.[Au+] [Auranofin],0.987 ± 2%,
"COc1cc(OC)c2c(C)cc(=O)oc2c1 [5,7-Dimethoxy-4-methylcoumarin]",,56.4%

SMILES,HMGB1-induced TNF-alpha production (compound concentration: 3 uM),HMGB1-induced TNF-alpha production [1]
"CC(C)(S)C(N)C(=O)O (single isomer, unassigned; (+)) [(+)-Penicillamine]",,77.3%
N#Cc1ccc2c(c1)N(CCCN1CCC(O)CC1)c1ccccc1S2,73.4%,
CCC1(c2ccccc2)C(=O)NCNC1=O,82.6%,
CCC1(c2ccccc2)C(=O)NCNC1=O [Primidone],100 ± 12%,
O=C(O)/C=C/C(O)c1ccc(Cl)cc1 (stereo not given),108%,
COC(=O)C1=C(C)NC(C)=C(C(=O)OC(C)(C)CN(C)CCC(c2ccccc2)c2ccccc2)C1c1cccc([N+](=O)[O-])c1 (stereo not given) [Lercanidipine hydrochloride hemihydrate],82.5%,
C[C@]12CCC(=O)C=C1CC[C@@H]1[C@@H]2CC[C@@]2(C)[C@H]1CC[C@]2(O)C(=O)CO [Cortexolone],73.8%,
CN(C)CCC(c1ccc(Br)cc1)c1ccccn1 (stereo not given) [Brompheniramine maleate],88.1%,
CN(C)CCC(c1ccc(Br)cc1)c1ccccn1 (stereo not given),86.3%,
NC[C@@H]1O[C@H](O[C@H]2[C@@H](O)[C@H](O[C@@H]3[C@@H](O)[C@H](N)C[C@H](N)[C@H]3O[C@H]3O[C@H](CO)[C@@H](O)C[C@H]3N)O[C@@H]2CO)[C@H](N)[C@@H](O)[C@@H]1O[C@H]1O[C@H](CO)[C@@H](O)[C@H](O)[C@@H]1O [Lividomycin A sulfate salt],,81.5%
"COc1ccccc1N1CCN(CCCNc2c(C)c(=O)n(C)c(=O)n2C)CC1 [Urapidil, 5-Methyl-]",99.1%,
O=C1CC[C@@H](C(=O)N2CSC[C@H]2C(=O)O)N1,88.6%,
c1ccc(-c2ccc(C(c3ccccc3)n3ccnc3)cc2)cc1 (stereo not given) [Bifonazole],84.9 ± 21%,
c1ccc(-c2ccc(C(c3ccccc3)n3ccnc3)cc2)cc1 (stereo not given),94.9 ± 3.8%,
Oc1c(Cl)cc(Cl)c2cccnc12,127%,
Oc1c(Cl)cc(Cl)c2cccnc12 [Chloroxine],97.4%,
CC(C)NCC(O)COc1ccc(CC(N)=O)cc1 (stereo not given),83.6%,
CC(C)NCC(O)COc1ccc(CC(N)=O)cc1 (stereo not given) [Atenolol],95.8%,
CNCCc1cnc(CCC(c2ccccc2)c2ccccc2)[nH]1 [N-Methylhistaprodifen dioxalate salt],78.6%,
NC(Cn1ccc(=O)c(O)c1)C(=O)O (stereo not given),103%,
O=C1c2c(O)cc(O)cc2O[C@H](c2ccc(O)c(O)c2)[C@H]1O (racemic) [(±)-Taxifolin],103%,
